Source: the supplement of paper PMC6411743
± gives the standard deviation of the averaged measurements. The entries are a selection whose mix differs from that of the whole data set.

Protein sequences, listed by entry. Tags and fused reporters are not part of them. Lines headed by an entry give the natural chain unless they say otherwise; changes in a name come on top.
UniProt Q12996: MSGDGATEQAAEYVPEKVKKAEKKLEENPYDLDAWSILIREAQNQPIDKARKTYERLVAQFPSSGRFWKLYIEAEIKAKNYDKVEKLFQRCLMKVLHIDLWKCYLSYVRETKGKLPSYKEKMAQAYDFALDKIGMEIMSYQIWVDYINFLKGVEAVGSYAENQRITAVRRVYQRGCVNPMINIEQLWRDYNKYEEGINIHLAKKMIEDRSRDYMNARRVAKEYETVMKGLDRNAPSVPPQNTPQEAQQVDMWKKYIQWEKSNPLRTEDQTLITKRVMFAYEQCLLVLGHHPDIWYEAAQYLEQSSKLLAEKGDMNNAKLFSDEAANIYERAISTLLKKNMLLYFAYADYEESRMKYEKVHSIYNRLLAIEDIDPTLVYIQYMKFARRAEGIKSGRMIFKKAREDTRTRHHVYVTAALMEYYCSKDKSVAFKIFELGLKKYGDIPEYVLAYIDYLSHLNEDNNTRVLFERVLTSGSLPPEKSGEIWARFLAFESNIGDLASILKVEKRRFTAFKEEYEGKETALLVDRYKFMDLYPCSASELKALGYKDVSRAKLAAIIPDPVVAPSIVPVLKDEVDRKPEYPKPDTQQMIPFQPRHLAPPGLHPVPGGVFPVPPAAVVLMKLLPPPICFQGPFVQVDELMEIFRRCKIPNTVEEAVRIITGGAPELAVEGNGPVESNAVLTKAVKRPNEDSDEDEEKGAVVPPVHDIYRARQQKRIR
UniProt Q12972: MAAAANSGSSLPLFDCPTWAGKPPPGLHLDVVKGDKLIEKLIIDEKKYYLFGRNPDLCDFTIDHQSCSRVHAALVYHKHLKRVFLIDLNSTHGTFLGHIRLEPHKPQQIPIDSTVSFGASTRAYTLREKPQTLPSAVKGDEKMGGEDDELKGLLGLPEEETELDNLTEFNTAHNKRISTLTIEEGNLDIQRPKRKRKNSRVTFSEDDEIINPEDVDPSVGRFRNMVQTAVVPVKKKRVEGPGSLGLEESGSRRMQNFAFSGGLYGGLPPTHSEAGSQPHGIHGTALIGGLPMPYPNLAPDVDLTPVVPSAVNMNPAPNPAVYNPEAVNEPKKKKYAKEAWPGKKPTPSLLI
UniProt Q14781, whole entry: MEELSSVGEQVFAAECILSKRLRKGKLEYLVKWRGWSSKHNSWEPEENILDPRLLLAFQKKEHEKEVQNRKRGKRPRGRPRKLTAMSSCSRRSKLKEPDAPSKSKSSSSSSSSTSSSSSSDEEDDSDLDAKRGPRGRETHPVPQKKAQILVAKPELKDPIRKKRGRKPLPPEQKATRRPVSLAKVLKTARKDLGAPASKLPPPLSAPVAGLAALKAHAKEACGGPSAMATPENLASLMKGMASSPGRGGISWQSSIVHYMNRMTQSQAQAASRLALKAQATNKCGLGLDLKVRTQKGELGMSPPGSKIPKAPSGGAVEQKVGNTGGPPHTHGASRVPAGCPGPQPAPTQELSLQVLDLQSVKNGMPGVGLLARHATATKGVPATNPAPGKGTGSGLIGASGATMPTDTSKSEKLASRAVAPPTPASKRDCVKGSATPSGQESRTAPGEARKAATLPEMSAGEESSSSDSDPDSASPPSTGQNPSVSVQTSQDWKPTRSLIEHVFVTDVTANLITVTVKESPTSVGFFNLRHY
UniProt Q12824, whole entry: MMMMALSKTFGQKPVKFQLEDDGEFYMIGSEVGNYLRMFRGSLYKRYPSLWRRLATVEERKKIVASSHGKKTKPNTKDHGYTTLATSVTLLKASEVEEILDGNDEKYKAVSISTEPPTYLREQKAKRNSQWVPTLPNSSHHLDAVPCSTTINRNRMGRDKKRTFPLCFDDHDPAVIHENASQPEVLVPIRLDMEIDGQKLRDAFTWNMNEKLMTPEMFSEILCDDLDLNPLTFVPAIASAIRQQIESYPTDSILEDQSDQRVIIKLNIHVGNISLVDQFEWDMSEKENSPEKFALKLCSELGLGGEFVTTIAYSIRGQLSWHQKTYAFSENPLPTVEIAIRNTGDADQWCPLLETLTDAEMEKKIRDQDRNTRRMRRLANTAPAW
UniProt Q12974: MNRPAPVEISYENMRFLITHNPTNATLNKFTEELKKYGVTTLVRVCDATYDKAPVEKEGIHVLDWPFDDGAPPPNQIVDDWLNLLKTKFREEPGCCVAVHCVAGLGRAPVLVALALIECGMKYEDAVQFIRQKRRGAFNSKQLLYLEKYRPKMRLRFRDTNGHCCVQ
UniProt Q13888: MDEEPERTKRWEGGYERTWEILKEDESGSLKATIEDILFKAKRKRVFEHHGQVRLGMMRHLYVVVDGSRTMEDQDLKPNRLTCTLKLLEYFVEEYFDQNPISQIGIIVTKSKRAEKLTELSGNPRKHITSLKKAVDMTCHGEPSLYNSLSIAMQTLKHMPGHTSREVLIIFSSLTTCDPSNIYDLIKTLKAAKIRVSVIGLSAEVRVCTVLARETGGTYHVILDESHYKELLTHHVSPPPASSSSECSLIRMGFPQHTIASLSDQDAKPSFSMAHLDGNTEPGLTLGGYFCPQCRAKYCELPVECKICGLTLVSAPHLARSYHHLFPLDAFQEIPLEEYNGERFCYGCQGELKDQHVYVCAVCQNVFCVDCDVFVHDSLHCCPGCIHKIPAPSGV
UniProt Q6P1K8: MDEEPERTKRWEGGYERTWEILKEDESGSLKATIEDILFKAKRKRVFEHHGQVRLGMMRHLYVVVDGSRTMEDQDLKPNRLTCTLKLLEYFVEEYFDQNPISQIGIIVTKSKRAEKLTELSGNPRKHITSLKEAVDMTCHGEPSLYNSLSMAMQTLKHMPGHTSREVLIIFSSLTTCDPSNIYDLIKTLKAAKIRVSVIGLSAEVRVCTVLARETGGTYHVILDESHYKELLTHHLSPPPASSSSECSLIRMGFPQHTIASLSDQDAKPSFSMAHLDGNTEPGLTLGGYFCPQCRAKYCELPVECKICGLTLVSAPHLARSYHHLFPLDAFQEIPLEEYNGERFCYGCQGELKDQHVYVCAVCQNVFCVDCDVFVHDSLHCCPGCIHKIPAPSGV
UniProt Q13308: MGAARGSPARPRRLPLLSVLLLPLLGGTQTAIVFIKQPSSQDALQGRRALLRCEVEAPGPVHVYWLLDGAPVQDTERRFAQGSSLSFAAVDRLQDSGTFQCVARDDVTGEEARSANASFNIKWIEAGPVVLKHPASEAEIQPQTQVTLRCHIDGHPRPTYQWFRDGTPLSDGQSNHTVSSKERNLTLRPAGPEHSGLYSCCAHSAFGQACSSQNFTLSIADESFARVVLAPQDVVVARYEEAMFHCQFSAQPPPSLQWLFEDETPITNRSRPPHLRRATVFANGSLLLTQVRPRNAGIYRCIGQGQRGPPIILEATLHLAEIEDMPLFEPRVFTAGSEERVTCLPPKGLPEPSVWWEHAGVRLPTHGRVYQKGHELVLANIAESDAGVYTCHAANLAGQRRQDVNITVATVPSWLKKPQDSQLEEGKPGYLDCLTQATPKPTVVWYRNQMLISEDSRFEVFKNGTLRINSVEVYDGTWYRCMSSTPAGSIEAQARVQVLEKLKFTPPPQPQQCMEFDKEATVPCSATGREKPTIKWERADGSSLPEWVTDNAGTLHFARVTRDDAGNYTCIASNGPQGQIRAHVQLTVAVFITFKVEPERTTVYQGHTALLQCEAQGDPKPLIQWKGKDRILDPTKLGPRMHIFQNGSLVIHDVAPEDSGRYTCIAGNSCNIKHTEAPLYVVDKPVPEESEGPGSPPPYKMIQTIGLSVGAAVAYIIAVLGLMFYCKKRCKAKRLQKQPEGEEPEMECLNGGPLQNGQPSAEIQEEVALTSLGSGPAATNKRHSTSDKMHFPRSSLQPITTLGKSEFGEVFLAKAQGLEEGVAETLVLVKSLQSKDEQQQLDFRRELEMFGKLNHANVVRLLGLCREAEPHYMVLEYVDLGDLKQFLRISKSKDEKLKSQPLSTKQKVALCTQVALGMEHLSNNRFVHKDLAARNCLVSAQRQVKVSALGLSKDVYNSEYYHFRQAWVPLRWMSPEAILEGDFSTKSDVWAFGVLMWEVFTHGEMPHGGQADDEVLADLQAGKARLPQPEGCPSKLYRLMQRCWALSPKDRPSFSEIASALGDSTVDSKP
UniProt Q14181: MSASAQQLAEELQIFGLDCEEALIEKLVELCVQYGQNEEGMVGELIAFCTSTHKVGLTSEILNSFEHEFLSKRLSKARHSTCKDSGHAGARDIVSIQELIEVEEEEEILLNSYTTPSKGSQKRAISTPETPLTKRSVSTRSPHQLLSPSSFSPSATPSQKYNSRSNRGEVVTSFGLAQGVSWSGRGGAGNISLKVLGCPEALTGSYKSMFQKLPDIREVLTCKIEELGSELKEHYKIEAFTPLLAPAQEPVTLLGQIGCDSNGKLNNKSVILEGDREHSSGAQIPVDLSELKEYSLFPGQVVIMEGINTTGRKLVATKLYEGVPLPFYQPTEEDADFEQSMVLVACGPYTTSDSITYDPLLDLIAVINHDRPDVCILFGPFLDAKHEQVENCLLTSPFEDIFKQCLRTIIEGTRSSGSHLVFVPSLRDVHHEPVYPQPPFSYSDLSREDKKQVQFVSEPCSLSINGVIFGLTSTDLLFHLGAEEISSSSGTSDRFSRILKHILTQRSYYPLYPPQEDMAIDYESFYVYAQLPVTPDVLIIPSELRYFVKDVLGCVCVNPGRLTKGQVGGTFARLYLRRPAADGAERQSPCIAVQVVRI
UniProt Q14240, whole entry: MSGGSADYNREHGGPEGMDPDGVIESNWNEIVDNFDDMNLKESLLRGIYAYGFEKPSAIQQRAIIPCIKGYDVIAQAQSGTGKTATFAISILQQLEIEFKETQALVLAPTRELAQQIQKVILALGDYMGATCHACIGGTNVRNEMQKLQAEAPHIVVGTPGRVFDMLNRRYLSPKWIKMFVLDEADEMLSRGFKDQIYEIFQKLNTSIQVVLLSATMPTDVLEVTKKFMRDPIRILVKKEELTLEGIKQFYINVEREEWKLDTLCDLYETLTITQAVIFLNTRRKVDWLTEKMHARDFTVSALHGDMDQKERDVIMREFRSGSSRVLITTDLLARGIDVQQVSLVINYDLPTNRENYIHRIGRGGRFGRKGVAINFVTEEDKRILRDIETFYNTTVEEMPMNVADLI
UniProt Q13216, whole entry: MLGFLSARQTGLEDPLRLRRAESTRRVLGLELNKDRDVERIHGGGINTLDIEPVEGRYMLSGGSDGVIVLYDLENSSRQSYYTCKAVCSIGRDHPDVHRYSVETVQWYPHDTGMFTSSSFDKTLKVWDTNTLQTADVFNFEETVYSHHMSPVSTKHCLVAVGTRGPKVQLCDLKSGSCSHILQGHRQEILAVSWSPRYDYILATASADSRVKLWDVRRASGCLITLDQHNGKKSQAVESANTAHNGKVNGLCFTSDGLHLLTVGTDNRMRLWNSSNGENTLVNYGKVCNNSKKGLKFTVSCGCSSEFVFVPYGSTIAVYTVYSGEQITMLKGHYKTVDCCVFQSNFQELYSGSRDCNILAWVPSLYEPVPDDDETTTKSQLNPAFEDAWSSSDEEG
UniProt Q12933: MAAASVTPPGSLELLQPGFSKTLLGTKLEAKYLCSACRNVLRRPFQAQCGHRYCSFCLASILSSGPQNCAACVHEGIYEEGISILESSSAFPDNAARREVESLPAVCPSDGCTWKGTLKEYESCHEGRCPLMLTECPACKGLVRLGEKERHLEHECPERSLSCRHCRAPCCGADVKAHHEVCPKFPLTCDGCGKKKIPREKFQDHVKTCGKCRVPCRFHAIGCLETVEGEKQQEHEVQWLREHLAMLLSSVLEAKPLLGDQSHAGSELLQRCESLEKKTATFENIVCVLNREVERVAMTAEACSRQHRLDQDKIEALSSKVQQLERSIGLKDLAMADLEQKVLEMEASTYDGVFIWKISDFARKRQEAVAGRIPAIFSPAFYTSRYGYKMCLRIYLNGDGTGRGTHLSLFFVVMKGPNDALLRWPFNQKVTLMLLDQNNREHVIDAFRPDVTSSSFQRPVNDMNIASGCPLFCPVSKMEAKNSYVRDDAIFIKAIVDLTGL

Compound: Nc1ncnc2c1ncn2[C@@H]1O[C@H](COP(=O)(O)OP(=O)(O)NP(=O)(O)O)[C@@H](O)[C@H]1O [adenylyl imidodiphosphate]
Assay: NP40-soluble protein abundance relative to vehicle (solubility fold change) (ratio); higher = more soluble protein in presence of AMP-PNP
Method in brief: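 In three independent experiments, Jurkat crude lysate made by Dounce homogenisation was treated for 10 min at room temperature and then 3 min at 37 °C with eight concentrations ranging from 0.1 to 10 mM. It was then solubilised with 0.8% NP40 plus benzonase for 60 min at 4 °C and ultracentrifuged. The supernatant was TMT-labelled for LC-MS/MS, and each value is the fold change against the detergent-processed vehicle for the same replicate, using vsn-normalised intensities.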

Target	NP40-soluble protein abundance (concentration: 1mM)	NP40-soluble protein abundance (concentration: 2mM)	NP40-soluble protein abundance (concentration: 4mM)	NP40-soluble protein abundance (concentration: 6mM)	NP40-soluble protein abundance (concentration: 8mM)	NP40-soluble protein abundance (concentration: 10mM)
CSTF3 (UniProt Q12996)	1.02 ± 0.014	0.983 ± 0.038	1.07 ± 0.042	1.08 ± 0.057	1.11 ± 0.09	1.12 ± 0.087
PPP1R8 (UniProt Q12972)	1.04 ± 0.03	1.04 ± 0.019	1.02 ± 0.053	1.005 ± 0.0068	1.01 ± 0.041	0.995 ± 0.045
CBX2 (UniProt Q14781)	1 ± 0.03	1.01 ± 0.0083	1.01 ± 0.033	1.08 ± 0.04	1.05 ± 0.016	1.1 ± 0.053
UniProt Q12824	0.973 ± 0.021	0.948 ± 0.074	0.984 ± 0.074	0.948 ± 0.083	0.946 ± 0.034	0.923 ± 0.079
UniProt Q12974 and related entries	1.04 ± 0.032	1.022 ± 0.0039	0.956 ± 0.027	0.996 ± 0.025	1.02 ± 0.029	0.988 ± 0.02
Q13888 and related entries (UniProt Q6P1K8+Q13888)	1.042 ± 0.0075	1.02 ± 0.017	1.03 ± 0.015	1.02 ± 0.026	1.05 ± 0.027	1 ± 0.041
UniProt Q13308 and related entries	0.994 ± 0.014	1.05 ± 0.048	1.01 ± 0.035	1.04 ± 0.041	1.02 ± 0.015	1.07 ± 0.035
POLA2 (UniProt Q14181)	0.994 ± 0.014	0.974 ± 0.028	1 ± 0.044	1.04 ± 0.03	1.02 ± 0.021	1.03 ± 0.025
UniProt Q15067-2|Q15067	1 ± 0.034	0.936 ± 0.074	1.01 ± 0.035	1.09 ± 0.071	1.09 ± 0.053	1.068 ± 0.0032
UniProt Q14240 and related entries	1.07 ± 0.018	1 ± 0.028	1.09 ± 0.068	1.16 ± 0.026	1.21 ± 0.047	1.18 ± 0.066
ERCC8 (UniProt Q13216)	0.983 ± 0.02	0.996 ± 0.021	1.01 ± 0.028	0.9696 ± 0.0035	0.995 ± 0.022	0.995 ± 0.027
UniProt Q10567-3|Q10567-4	0.9767 ± 0.0069	0.9617 ± 0.0063	0.95 ± 0.026	1 ± 0.05	0.972 ± 0.029	1.01 ± 0.058
UniProt Q12933 and related entries	0.987 ± 0.021	0.961 ± 0.032	0.989 ± 0.032	0.969 ± 0.048	0.944 ± 0.02	0.97 ± 0.046

Rewritten comma-delimited: entries from further up.
Target,NP40-soluble protein abundance (concentration: 1mM),NP40-soluble protein abundance (concentration: 2mM),NP40-soluble protein abundance (concentration: 4mM),NP40-soluble protein abundance (concentration: 6mM),NP40-soluble protein abundance (concentration: 8mM),NP40-soluble protein abundance (concentration: 10mM)
UniProt Q12824,0.973 ± 0.021,0.948 ± 0.074,0.984 ± 0.074,0.948 ± 0.083,0.946 ± 0.034,0.923 ± 0.079
UniProt Q12974 and related entries,1.04 ± 0.032,1.022 ± 0.0039,0.956 ± 0.027,0.996 ± 0.025,1.02 ± 0.029,0.988 ± 0.02
